Test results: the supplement of paper PMC10735217
Where a name gives a salt, the structure may show the parent alone. This is one part of the list. Repeats in this data set agree poorly, so a single value says little.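 Human kidney-derived cells stably carry a construct in which eight TEAD-binding elements drive luciferase, measured by luminescence in a drug-repurposing library screen. A hit is any compound whose signal exceeds the plate mean by more than five robust Z scores.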

Test system: HEK293A TEAD-LUC reporter
Test: TEAD-luciferase reporter activity (YAP activation), robust Z score vs plate; higher = stronger YAP/TEAD activation
Details: 24 h

Row | SMILES | TEAD-luciferase reporter activity (compound concentration: 200 nM) | TEAD-luciferase reporter activity (compound concentration: 2 uM) | TEAD-luciferase reporter activity (compound concentration: 10 uM)
1 | CN1CCC(C(=O)O)(c2ccccc2)CC1 | inactive: -0.381 | inactive: -1.52 | inactive: -1.41
2 | CN[C@H](CC(C)C)C1(c2ccc(Cl)cc2)CCC1 [(R)-N,N-Desmethylsibutramine] | inactive: 0.185 | inactive: -0.145 | inactive: 0.488
3 | CC(C)(C)NCC(O)c1ccccc1Cl (stereo unspecified) [tulobuterol (patch)] | inactive: 3.83 | inactive: -0.424 | inactive: -0.408
4 | C=CCC1(C(C)CCC)C(=O)NC(=S)NC1=O (stereo unspecified) [Thiamylal] | inactive: -2.95 | – | inactive: -1.52
5 | Cc1ncsc1CCCl [clomethiazole, AstraZeneca] | inactive: -2.25 | – | inactive: 4.16
6 | Cc1ncsc1CCCl [clomethiazole] | – | inactive: -2 | –
7 | O=C(Nc1ccc(Br)cc1)c1cc(Br)cc(Br)c1O | inactive: 2.09 | inactive: -0.758 | inactive: 2.27
8 | O=c1[nH]c(N2CCNCC2)nc2ccccc12 [Centpiperalone] | inactive: -2.06 | inactive: -2.4 | inactive: -0.468
9 | CC(C)(C)NCC(O)c1cc(Cl)c(N)c(Cl)c1 (stereo unspecified) [clenbuterol] | – | inactive: 1.44 | –
10 | CC(C)(C)NCC(O)c1cc(Cl)c(N)c(Cl)c1 (stereo unspecified) [Clenbuterol] | inactive: -0.33 | – | inactive: -0.346
11 | CC/C=C\C/C=C\C/C=C\C/C=C\C/C=C\CCCC(=O)NCCNC(=O)c1cccnc1 | active: 5.38 | inactive: -0.503 | inactive: -0.734
12 | O=C(Cc1ccccc1)N1CCC(C(=O)O)(c2ccccc2)CC1 | inactive: -1.44 | – | inactive: 1.62
13 | CN(C(=O)CNC(=O)CN)c1ccc(Cl)cc1C(=O)c1ccccc1Cl | inactive: -0.267 | inactive: -1.3 | inactive: 1.71
14 | CN1C(=O)C(Cc2ccc3ccccc3c2)N=C(c2ccc(O)cc2)c2cc(Cl)ccc21 (stereo unspecified) | inactive: -1.89 | inactive: -1.07 | inactive: 0.893
15 | CN1C(=O)CC(=O)N(c2ccccc2)c2cc(Cl)ccc21 | inactive: -1 | inactive: 0.841 | inactive: 0.701
16 | Cn1c2c(c3ccccc31)CCNCC2 | inactive: 2.65 | inactive: 0.518 | inactive: 0.0774
17 | CCCN(CCC)C1CCc2c(F)ccc(O)c2C1 (stereo unspecified) | inactive: 4.86 | inactive: 2.79 | inactive: -1.55
18 | CCCCCCC(C)(C)c1cc(O)c2c(c1)OC(C)(C)[C@@H]1CC[C@@H](O)C[C@@H]21 | inactive: 1.47 | inactive: -0.842 | inactive: -0.981
19 | CC(C)[C@H](N)C(=O)N1CCC[C@H]1B(O)O [talabostat mesylate] | inactive: 3.82 | inactive: -1.99 | inactive: -1.27
20 | CN1[C@@H]2CC[C@H]1C[C@@H](N1Cc3ccc4ccccc4c3C1=O)C2 | inactive: -0.7 | inactive: -1.43 | inactive: -1.42
21 | O=C1C=CC[C@@H]2[C@H]3CCCN4CCC[C@@H](CN12)[C@@H]34 [Sophocarpine] | inactive: 0.684 | inactive: -0.579 | inactive: 0.882

Row | SMILES | TEAD-luciferase reporter activity (compound concentration: 200 nM) | TEAD-luciferase reporter activity (compound concentration: 2 uM) | TEAD-luciferase reporter activity (compound concentration: 10 uM)
22 | CC12C=CC(=O)C=C1CCC1C2C(O)CC2(C)C(=O)CCC12 (stereo unspecified) | inactive: -2.49 | inactive: -0.543 | inactive: -1.24
23 | Cn1cc(C2=NCC3(CN4CCC3CC4)O2)c2ccccc21 (stereo unspecified) | inactive: -1.15 | inactive: 0.476 | inactive: -0.673
24 | c1ccc(C(Cc2noc(CCN3CCCCC3)n2)c2ccccc2)cc1 | inactive: 0.704 | inactive: 0.117 | inactive: -0.988
25 | O=C(O)CCCc1ccc(N(CCCl)CCCl)cc1 [chlorambucil] | – | inactive: -0.397 | –
26 | O=C(O)CCCc1ccc(N(CCCl)CCCl)cc1 | inactive: -1.35 | – | inactive: -0.715
27 | COc1ccc(C(O)CNC(C)Cc2ccccc2)cc1 (stereo unspecified) | inactive: 0.511 | inactive: -1.57 | active: 5.03
28 | C[C@@H]1NC(C)(C)CO[C@@]1(O)c1cccc(Cl)c1 [Radafaxine hydrochloride] | active: 5.1 | inactive: -1.54 | inactive: 4.49
29 | CC(C)(N)Cc1ccccc1 [Phentermine HCl] | inactive: 2.02 | – | inactive: 1.24
30 | O=c1cccc2n1C[C@@H]1CNC[C@H]2C1 [Cytisine] | inactive: 0.702 | inactive: -0.353 | inactive: -1.3
31 | CCN(CC)CCN1C(=O)CN=C(c2ccccc2F)c2cc(Cl)ccc21 [Flurazepam] | inactive: 0.951 | inactive: -0.0863 | inactive: 0.975
32 | O=[Se](=O)([O-])[O-] [Sodium selenate] | inactive: -2.43 | inactive: -1.15 | inactive: 2.16
33 | C[C@H]1CC[C@@](c2ccccc2)(N2CCN(c3ccccc3)CC2)CC1 | inactive: -0.0168 | inactive: 0.285 | inactive: -0.318
34 | CC1CCCC(O)CCCCCc2cc(O)cc(O)c2C(=O)O1 (stereo unspecified) | inactive: 0.00694 | inactive: -1.09 | inactive: -0.464
35 | CCCC(CCC)C(=O)OC1CC2CCC(C1)[N+]2(C)C(C)C (stereo unspecified) [Sintropium iodide] | inactive: -0.796 | inactive: -0.576 | inactive: 4.26
36 | CCCCOC(=O)c1ccccc1OP1(=O)CO[C@H](Cn2ccc(N)nc2=O)CO1 (stereo partly specified) | inactive: -2.01 | inactive: -0.104 | inactive: 1.12
37 | O=C1OC(CCN2CCCCC2)OC1(c1ccccc1)c1ccccc1 (stereo unspecified) [Pipoxolan hydrochloride] | inactive: 0.123 | inactive: -1.49 | inactive: -1.42
38 | C=C1CC[C@@]2(O)[C@H]3Cc4ccc(OC5O[C@H](C(=O)O)[C@@H](O)[C@H](O)[C@H]5O)c5c4[C@@]2(CCN3CC2CC2)[C@H]1O5 (stereo partly specified) [nalmefene glucuronide] | inactive: 1.82 | inactive: -2.31 | inactive: 0.376
39 | C#CCN[C@@H]1CCc2ccc(OC(=O)N(C)CC)cc21 | inactive: -1.45 | inactive: -0.45 | inactive: 2
40 | CN(C)CCc1ccccc1 [Dimethyl(2-phenylethyl)amine] | active: 7.28 | inactive: 0.0587 | inactive: -0.0199
41 | CCOC(=O)c1c(C)cc2nc(COC(=O)NCCO)n(-c3ccccc3S(=O)(=O)NC)c(=O)c2c1C | inactive: -0.751 | inactive: -1.37 | inactive: -0.687
42 | CCC1(CC)C(=O)NC(=O)N(C)C1=O | inactive: -1.55 | inactive: 0.235 | inactive: -0.34

Row | SMILES | TEAD-luciferase reporter activity (compound concentration: 200 nM) | TEAD-luciferase reporter activity (compound concentration: 2 uM) | TEAD-luciferase reporter activity (compound concentration: 10 uM)
43 | CCc1c2c(nc3ccccc13)-c1cc3c(c(=O)n1C2)COC(=O)[C@]3(O)CC | inactive: -0.709 | inactive: -1.28 | inactive: -1.85
44 | N#CCC(=O)c1ccccc1 | inactive: -0.837 | inactive: -1.52 | inactive: -0.212
45 | C#CCN(C)[C@H](C)Cc1ccccc1 [selegiline, Elan Transdermal] | – | inactive: -0.522 | –
46 | C#CCN(C)[C@H](C)Cc1ccccc1 | inactive: 2.65 | – | inactive: 0.255
47 | N#CC(CCN1CCNCC1)(c1ccccc1)c1ccccc1 | inactive: -2.06 | inactive: -2.91 | inactive: -0.624
48 | NC1=NCC(c2ccc(Br)cc2)O1 (stereo unspecified) | inactive: 0.353 | inactive: 0.917 | inactive: 0.356
49 | CNC1CCc2[nH]c3c(F)cc(F)cc3c2C1 (stereo unspecified) | inactive: -0.745 | inactive: -0.98 | inactive: 0.309
50 | C[N+]1(C)C2CC(O)CC1C1OC12 (stereo unspecified) | inactive: -0.712 | inactive: -0.0476 | inactive: -0.677
51 | CCn1nc(C)c2c1C(c1ccccc1)=NCC(=O)N2 [ripazepam] | inactive: -1.03 | inactive: 0.147 | inactive: -1.15
52 | CC(CC(C(N)=O)(c1ccccc1)c1ccccn1)N(C)C (stereo unspecified) | inactive: 0.425 | inactive: 1.76 | inactive: -0.539
53 | CC12CC[C@H]3[C@@H](CC[C@@]45O[C@@H]4C(=O)C(C#N)CC35C)[C@@H]1CC[C@@H]2O (stereo partly specified) [Trilostane] | inactive: -1.45 | inactive: -1.06 | inactive: 0.302
54 | CCN(CC)C(=O)N[C@H]1C=C2c3cccc4[nH]cc(c34)C[C@H]2N(C)C1 [lisuride hydrogen maleate, Sinoxa] | inactive: 2.54 | inactive: 0.572 | inactive: 0.992
55 | CC(C)=CC1C(C(=O)OCc2cccc(Oc3ccccc3)c2)C1(C)C (stereo unspecified) | inactive: -1.24 | inactive: -2.31 | inactive: -0.269
56 | CC(N)(Cc1ccccc1)c1ccccc1 (stereo unspecified) | inactive: -0.763 | inactive: -1.34 | inactive: 0.956
57 | CCCC(Cc1ccccc1)N1CCCC1 (stereo unspecified) | inactive: -0.57 | inactive: -0.976 | inactive: -1.23
58 | Oc1ccc2c3c1O[C@H]1c4[nH]c5ccccc5c4C[C@@]4(O)[C@@H](C2)N(CC2CC2)CC[C@]314 [Naltrindole] | inactive: -0.442 | inactive: -1.36 | inactive: 2.43
59 | N=C(/N=N/C(=N)NCl)NCl | inactive: -0.943 | inactive: -1.64 | inactive: 0.101
60 | C[C@]12C=CC(=O)C=C1CC[C@@H]1C2CC[C@]2(C)OC(=O)CCC12 (stereo partly specified) [Testolactone] | inactive: -1.42 | inactive: 1.27 | inactive: 3.24
61 | C[C@]12CCC3C(CCC4=C(Cl)C(=O)CC[C@@]43C)C1CCC2O (stereo partly specified) | inactive: 0.273 | inactive: 0.783 | inactive: 2.53
62 | Cc1cccc(NC(=O)NC2N=C(C3CCCCC3)c3ccccc3N(C)C2=O)c1 (stereo unspecified) | inactive: -1.34 | inactive: -0.714 | inactive: 3.48

Record cards, from the list above. Order of values: TEAD-luciferase reporter activity (compound concentration: 200 nM) | TEAD-luciferase reporter activity (compound concentration: 2 uM) | TEAD-luciferase reporter activity (compound concentration: 10 uM)
C[C@]12CCC3C(CCC4=C(Cl)C(=O)CC[C@@]43C)C1CCC2O (stereo partly specified) in the list: inactive: 0.273 | inactive: 0.783 | inactive: 2.53
C#CCN(C)[C@H](C)Cc1ccccc1 in the list: inactive: 2.65 | – | inactive: 0.255
N#CC(CCN1CCNCC1)(c1ccccc1)c1ccccc1 in the list: inactive: -2.06 | inactive: -2.91 | inactive: -0.624
